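Malaria parasite (P. falciparum) lines kept in red blood cells; parasite DNA is measured by SYBR Green fluorescence after lysis, 72 h after compound addition. Each compound was titrated across a series from about 0.000037 to 29 µM. The number is the fitted AC50, the concentration giving a half-maximal change in signal; a lower value means higher potency, whether the curve shows a decrease or an increase. Calls follow the curve class and fit quality: every row here is inconclusive, covering signal-raising curves and weak, poorly fitted, partial or highest-dose-only inhibition curves.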

Values are in nM. Every entry below has the call inconclusive. Only part of the assay is shown, chiefly results filed as inconclusive. A potency from a partial, single-point or poor curve is only a rough figure. Some entries filed as inconclusive have a full curve. The first word of each remark tells which way the curve ran; it can be opposite to the aim of the assay.

SMILES,setting,potency (nM),curve as filed
CCCN1C[C@H](CSC)C[C@@H]2c3cccc4[nH]cc(c34)C[C@H]21,DIV30,11995,"inhibitor, single point"
CCCN1C[C@H](CSC)C[C@@H]2c3cccc4[nH]cc(c34)C[C@H]21,CP211,6012,"inhibitor, partial curve, poor fit"
CCCN1C[C@H](CSC)C[C@@H]2c3cccc4[nH]cc(c34)C[C@H]21,PC26,8492,"inhibitor, partial curve"
CCCN1C[C@H](CSC)C[C@@H]2c3cccc4[nH]cc(c34)C[C@H]21,PAD,11220,"inhibitor, single point"
CCCN1C[C@H](CSC)C[C@@H]2c3cccc4[nH]cc(c34)C[C@H]21,C2A,11220,"inhibitor, single point"
CCCN1C[C@H](CSC)C[C@@H]2c3cccc4[nH]cc(c34)C[C@H]21,CP247,7080,"inhibitor, partial curve, poor fit"
CCCN1C[C@H](CSC)C[C@@H]2c3cccc4[nH]cc(c34)C[C@H]21,CP203,19011,"inhibitor, partial curve, poor fit"
CCCN1C[C@H](CSC)C[C@@H]2c3cccc4[nH]cc(c34)C[C@H]21,CP252,10000,"inhibitor, single point"
CCCN1C[C@H](CSC)C[C@@H]2c3cccc4[nH]cc(c34)C[C@H]21,DIV14,6012,"inhibitor, partial curve, poor fit"
CCCN1C[C@H](CSC)C[C@@H]2c3cccc4[nH]cc(c34)C[C@H]21,ECU,11220,"inhibitor, single point"
CCCN1C[C@H](CSC)C[C@@H]2c3cccc4[nH]cc(c34)C[C@H]21,CP191,10000,activator
CCCN1C[C@H](CSC)C[C@@H]2c3cccc4[nH]cc(c34)C[C@H]21,JCK,10000,"inhibitor, single point"
CCCN1C[C@H](CSC)C[C@@H]2c3cccc4[nH]cc(c34)C[C@H]21,CP286,12589,"inhibitor, partial curve"
CCCN1C[C@H](CSC)C[C@@H]2c3cccc4[nH]cc(c34)C[C@H]21,CP217,10000,"inhibitor, single point"
CCCN1C[C@H](CSC)C[C@@H]2c3cccc4[nH]cc(c34)C[C@H]21,N140,17782,"inhibitor, single point"
CCCN1C[C@H](CSC)C[C@@H]2c3cccc4[nH]cc(c34)C[C@H]21,CP291,19011,"inhibitor, partial curve, poor fit"
CCCN1C[C@H](CSC)C[C@@H]2c3cccc4[nH]cc(c34)C[C@H]21,CP268,16944,"inhibitor, single point"
CCCN1C[C@H](CSC)C[C@@H]2c3cccc4[nH]cc(c34)C[C@H]21,ATS189,8912,"inhibitor, single point"
CCCN1C[C@H](CSC)C[C@@H]2c3cccc4[nH]cc(c34)C[C@H]21,CP265,12589,"inhibitor, single point"
Oc1ccc(Cl)cc1Cc1ccccc1,CP260,10000,"inhibitor, single point"
Oc1ccc(Cl)cc1Cc1ccccc1,CP265,11220,"inhibitor, single point"
Oc1ccc(Cl)cc1Cc1ccccc1,CP291,9528,"inhibitor, single point"
Oc1ccc(Cl)cc1Cc1ccccc1,CP237,17782,"inhibitor, single point"
Oc1ccc(Cl)cc1Cc1ccccc1,CP269,19011,"inhibitor, single point"
Oc1ccc(Cl)cc1Cc1ccccc1,CP297,15101,"inhibitor, single point"
Oc1ccc(Cl)cc1Cc1ccccc1,AA1029,11220,"inhibitor, single point"
Oc1ccc(Cl)cc1Cc1ccccc1,CP194,16944,"inhibitor, single point"
Oc1ccc(Cl)cc1Cc1ccccc1,CP252,17782,"inhibitor, single point"
Oc1ccc(Cl)cc1Cc1ccccc1,CP256,17782,"inhibitor, single point"
Oc1ccc(Cl)cc1Cc1ccccc1,CP268,16944,"inhibitor, single point"
Oc1ccc(Cl)cc1Cc1ccccc1,CP335,15101,"inhibitor, single point"
Oc1ccc(Cl)cc1Cc1ccccc1,ATS189,12589,"inhibitor, single point"
Oc1ccc(Cl)cc1Cc1ccccc1,JCK,15848,"inhibitor, single point"
Oc1ccc(Cl)cc1Cc1ccccc1,PC15,11220,"inhibitor, single point"
Oc1ccc(Cl)cc1Cc1ccccc1,CP192,11995,"inhibitor, single point"
Oc1ccc(Cl)cc1Cc1ccccc1,CP217,11220,"inhibitor, single point"
Oc1ccc(Cl)cc1Cc1ccccc1,ATS95,17782,"inhibitor, single point"
Oc1ccc(Cl)cc1Cc1ccccc1,P93_24,10000,"inhibitor, partial curve, poor fit"
Oc1ccc(Cl)cc1Cc1ccccc1,CP191,17782,"inhibitor, single point"
Oc1ccc(Cl)cc1Cc1ccccc1,CP215,19011,"inhibitor, single point"
Oc1ccc(Cl)cc1Cc1ccccc1,parasite line B,10000,"inhibitor, single point"
Oc1ccc(Cl)cc1Cc1ccccc1,DFO2036,17782,"inhibitor, single point"
Oc1ccc(Cl)cc1Cc1ccccc1,CP305,19011,"inhibitor, single point"
Oc1ccc(Cl)cc1Cc1ccccc1,CP247,11220,"inhibitor, single point"
Oc1ccc(Cl)cc1Cc1ccccc1,3D7,14125,"inhibitor, single point"
CC(C)=CCC1C(=O)N(c2ccccc2)N(c2ccccc2)C1=O,CP192,9528,"inhibitor, partial curve, poor fit"
CC(C)=CCC1C(=O)N(c2ccccc2)N(c2ccccc2)C1=O,CP335,2686,"inhibitor, partial curve"
CC(C)=CCC1C(=O)N(c2ccccc2)N(c2ccccc2)C1=O,CP256,10000,"inhibitor, single point"
CC(C)=CCC1C(=O)N(c2ccccc2)N(c2ccccc2)C1=O,3D7,2818,"inhibitor, full curve"
CC(C)=CCC1C(=O)N(c2ccccc2)N(c2ccccc2)C1=O,CP262,19011,"inhibitor, single point"

6 of the entries, repeated:

{"smiles": "CCCN1C[C@H](CSC)C[C@@H]2c3cccc4[nH]cc(c34)C[C@H]21", "setting": "N140", "potency (nM)": "17782", "curve as filed": "inhibitor, single point"}
{"smiles": "Oc1ccc(Cl)cc1Cc1ccccc1", "setting": "ATS189", "potency (nM)": "12589", "curve as filed": "inhibitor, single point"}
{"smiles": "CCCN1C[C@H](CSC)C[C@@H]2c3cccc4[nH]cc(c34)C[C@H]21", "setting": "ECU", "potency (nM)": "11220", "curve as filed": "inhibitor, single point"}
{"smiles": "CC(C)=CCC1C(=O)N(c2ccccc2)N(c2ccccc2)C1=O", "setting": "CP262", "potency (nM)": "19011", "curve as filed": "inhibitor, single point"}
{"smiles": "CC(C)=CCC1C(=O)N(c2ccccc2)N(c2ccccc2)C1=O", "setting": "CP192", "potency (nM)": "9528", "curve as filed": "inhibitor, partial curve, poor fit"}
{"smiles": "Oc1ccc(Cl)cc1Cc1ccccc1", "setting": "CP191", "potency (nM)": "17782", "curve as filed": "inhibitor, single point"}

Data taken from PubChem BioAssay AID504749, deposited by NCATS (2011).